From PMC4316790

Molecular target: T1, NlpI-M (mature NlpI without signal peptide), C-terminal His-tagged, from pQE80-nlpI-M (E. coli) (UniProt P0AFB1)
T1 sequence: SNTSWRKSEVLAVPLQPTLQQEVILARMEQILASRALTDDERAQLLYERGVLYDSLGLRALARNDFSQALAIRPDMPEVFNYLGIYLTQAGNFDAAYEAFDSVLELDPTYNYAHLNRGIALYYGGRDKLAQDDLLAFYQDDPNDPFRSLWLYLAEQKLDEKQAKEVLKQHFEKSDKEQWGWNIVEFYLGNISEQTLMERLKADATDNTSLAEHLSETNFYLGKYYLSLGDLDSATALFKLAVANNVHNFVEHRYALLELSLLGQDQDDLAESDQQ
Assay: affinity purification with mass spectrometry; NlpI-M expressed and purified in the wild type strain; co-eluted proteins found by Western blot and MS analysis

B1: Heat shock protein IbpB (protein, UniProt P0C058 1-142)
chain: MRNFDLSPLMRQWIGFDKLANALQNAGESQSFPPYNIEKSDDNHYRITLALAGFRQEDLEIQLEGTRLSVKGTPEQPKEEKKWLHQGLMNQPFSLSFTLAENMEVSGATFVNGLLHIDLIRNEPEPIAAQRIAISERPALNS
For B1, the binding was “binds”.

Results are given in words; binding and its absence hold for the method and conditions named. In cells and extracts the contact can be indirect. These calls come from enrichment with a bait or labelling near it, and not all partners need be listed. Sequences can lack the tags named with a protein.
